# Source: the supplement of paper PMC12819154, “High-throughput peptide-centric local stability assay extends protein–ligand identification to membrane proteins, tissues and bacteria” (Nature Structural & Molecular Biology, 2025)
# Protein sequences, listed by entry. Tags and fused reporters are not part of them. Lines headed by an entry give the natural chain unless they say otherwise; changes in a name come on top.
# UniProt P11531: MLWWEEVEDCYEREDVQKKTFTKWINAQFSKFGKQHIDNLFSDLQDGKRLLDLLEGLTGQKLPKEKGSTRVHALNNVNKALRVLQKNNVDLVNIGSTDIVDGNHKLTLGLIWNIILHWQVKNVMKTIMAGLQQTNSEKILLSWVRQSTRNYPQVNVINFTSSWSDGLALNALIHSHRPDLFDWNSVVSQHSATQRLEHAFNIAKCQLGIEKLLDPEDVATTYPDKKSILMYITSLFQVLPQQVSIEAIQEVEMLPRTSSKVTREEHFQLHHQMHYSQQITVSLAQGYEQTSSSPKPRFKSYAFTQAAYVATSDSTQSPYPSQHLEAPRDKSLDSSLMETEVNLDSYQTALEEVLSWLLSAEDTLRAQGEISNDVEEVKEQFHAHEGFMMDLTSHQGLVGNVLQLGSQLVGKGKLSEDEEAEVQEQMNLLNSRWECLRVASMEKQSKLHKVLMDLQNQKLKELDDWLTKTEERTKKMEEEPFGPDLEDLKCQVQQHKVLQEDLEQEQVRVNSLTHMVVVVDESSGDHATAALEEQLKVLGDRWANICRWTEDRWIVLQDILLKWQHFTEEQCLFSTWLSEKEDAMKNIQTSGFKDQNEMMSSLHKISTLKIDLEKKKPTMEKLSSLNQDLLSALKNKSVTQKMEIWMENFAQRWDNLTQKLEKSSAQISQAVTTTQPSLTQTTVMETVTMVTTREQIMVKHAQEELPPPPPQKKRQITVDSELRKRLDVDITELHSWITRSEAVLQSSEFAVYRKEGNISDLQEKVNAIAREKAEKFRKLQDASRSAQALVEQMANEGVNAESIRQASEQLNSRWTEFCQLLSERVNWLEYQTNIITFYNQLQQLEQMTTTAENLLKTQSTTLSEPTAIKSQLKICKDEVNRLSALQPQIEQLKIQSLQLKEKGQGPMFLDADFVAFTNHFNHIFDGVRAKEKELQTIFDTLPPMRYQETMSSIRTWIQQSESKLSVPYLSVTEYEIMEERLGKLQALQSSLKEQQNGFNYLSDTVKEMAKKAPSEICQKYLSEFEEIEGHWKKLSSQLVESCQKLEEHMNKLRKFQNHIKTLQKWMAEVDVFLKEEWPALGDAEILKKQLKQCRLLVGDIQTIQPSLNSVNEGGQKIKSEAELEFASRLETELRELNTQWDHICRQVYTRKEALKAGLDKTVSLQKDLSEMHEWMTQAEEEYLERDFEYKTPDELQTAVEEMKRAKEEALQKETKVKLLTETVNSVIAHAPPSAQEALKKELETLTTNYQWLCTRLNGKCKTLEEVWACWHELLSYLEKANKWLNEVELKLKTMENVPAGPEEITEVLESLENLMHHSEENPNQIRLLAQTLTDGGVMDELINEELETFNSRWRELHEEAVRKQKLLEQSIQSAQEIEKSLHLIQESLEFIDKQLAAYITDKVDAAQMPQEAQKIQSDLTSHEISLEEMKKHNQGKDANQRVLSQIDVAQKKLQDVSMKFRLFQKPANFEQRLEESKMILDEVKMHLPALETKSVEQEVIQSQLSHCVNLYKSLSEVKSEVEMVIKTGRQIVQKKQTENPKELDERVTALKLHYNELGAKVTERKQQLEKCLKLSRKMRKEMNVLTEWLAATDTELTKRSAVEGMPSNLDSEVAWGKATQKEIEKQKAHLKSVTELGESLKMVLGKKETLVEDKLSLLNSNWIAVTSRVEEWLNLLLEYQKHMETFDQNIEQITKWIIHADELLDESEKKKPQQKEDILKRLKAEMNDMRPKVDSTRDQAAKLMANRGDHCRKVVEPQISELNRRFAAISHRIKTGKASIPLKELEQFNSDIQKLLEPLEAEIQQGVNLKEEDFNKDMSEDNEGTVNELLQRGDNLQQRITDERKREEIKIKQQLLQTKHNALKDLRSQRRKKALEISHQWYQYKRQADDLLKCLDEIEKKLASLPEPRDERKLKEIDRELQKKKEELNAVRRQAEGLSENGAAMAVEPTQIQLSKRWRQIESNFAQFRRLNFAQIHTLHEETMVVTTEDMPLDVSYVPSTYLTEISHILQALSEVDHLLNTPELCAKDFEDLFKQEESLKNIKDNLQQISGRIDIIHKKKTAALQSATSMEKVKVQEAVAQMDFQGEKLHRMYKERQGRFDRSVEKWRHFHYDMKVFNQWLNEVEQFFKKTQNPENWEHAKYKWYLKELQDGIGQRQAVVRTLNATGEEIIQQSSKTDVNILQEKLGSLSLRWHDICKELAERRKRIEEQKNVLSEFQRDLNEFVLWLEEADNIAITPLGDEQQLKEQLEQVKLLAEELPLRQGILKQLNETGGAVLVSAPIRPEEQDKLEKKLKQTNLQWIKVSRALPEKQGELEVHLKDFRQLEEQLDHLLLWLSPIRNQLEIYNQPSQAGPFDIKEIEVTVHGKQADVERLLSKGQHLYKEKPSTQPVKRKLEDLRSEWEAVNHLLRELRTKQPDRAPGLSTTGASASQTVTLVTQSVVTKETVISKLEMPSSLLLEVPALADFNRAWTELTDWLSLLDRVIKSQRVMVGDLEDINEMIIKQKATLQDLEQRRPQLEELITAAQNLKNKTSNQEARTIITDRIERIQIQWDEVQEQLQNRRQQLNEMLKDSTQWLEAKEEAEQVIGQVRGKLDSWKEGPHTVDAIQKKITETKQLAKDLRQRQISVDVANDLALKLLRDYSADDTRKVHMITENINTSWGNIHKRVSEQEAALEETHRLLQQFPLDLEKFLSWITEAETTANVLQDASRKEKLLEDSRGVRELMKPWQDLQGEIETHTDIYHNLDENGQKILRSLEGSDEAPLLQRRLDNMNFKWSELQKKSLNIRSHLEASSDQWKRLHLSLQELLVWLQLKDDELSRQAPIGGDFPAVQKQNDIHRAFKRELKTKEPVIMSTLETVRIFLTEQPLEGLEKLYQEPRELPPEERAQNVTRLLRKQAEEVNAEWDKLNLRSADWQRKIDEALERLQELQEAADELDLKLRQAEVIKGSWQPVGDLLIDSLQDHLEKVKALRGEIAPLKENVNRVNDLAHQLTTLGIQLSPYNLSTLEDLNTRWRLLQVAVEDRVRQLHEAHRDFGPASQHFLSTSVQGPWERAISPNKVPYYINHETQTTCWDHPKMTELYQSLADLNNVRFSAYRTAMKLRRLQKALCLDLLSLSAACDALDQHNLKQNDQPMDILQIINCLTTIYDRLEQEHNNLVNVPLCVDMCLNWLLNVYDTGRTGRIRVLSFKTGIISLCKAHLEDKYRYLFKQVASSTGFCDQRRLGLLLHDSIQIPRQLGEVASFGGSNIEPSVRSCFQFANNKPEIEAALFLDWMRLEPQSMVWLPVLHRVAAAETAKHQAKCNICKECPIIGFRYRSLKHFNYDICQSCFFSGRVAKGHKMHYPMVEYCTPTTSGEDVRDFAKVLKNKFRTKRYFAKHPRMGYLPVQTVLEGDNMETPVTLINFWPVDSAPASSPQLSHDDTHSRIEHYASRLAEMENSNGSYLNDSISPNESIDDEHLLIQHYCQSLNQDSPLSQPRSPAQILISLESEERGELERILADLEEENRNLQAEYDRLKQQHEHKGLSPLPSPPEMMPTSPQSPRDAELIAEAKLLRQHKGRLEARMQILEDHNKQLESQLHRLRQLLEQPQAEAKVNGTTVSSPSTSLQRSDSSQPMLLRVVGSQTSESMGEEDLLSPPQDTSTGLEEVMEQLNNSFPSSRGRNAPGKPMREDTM
# UniProt P0DJF2: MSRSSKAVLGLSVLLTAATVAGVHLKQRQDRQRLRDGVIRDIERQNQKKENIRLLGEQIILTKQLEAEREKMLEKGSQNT
# UniProt P20357: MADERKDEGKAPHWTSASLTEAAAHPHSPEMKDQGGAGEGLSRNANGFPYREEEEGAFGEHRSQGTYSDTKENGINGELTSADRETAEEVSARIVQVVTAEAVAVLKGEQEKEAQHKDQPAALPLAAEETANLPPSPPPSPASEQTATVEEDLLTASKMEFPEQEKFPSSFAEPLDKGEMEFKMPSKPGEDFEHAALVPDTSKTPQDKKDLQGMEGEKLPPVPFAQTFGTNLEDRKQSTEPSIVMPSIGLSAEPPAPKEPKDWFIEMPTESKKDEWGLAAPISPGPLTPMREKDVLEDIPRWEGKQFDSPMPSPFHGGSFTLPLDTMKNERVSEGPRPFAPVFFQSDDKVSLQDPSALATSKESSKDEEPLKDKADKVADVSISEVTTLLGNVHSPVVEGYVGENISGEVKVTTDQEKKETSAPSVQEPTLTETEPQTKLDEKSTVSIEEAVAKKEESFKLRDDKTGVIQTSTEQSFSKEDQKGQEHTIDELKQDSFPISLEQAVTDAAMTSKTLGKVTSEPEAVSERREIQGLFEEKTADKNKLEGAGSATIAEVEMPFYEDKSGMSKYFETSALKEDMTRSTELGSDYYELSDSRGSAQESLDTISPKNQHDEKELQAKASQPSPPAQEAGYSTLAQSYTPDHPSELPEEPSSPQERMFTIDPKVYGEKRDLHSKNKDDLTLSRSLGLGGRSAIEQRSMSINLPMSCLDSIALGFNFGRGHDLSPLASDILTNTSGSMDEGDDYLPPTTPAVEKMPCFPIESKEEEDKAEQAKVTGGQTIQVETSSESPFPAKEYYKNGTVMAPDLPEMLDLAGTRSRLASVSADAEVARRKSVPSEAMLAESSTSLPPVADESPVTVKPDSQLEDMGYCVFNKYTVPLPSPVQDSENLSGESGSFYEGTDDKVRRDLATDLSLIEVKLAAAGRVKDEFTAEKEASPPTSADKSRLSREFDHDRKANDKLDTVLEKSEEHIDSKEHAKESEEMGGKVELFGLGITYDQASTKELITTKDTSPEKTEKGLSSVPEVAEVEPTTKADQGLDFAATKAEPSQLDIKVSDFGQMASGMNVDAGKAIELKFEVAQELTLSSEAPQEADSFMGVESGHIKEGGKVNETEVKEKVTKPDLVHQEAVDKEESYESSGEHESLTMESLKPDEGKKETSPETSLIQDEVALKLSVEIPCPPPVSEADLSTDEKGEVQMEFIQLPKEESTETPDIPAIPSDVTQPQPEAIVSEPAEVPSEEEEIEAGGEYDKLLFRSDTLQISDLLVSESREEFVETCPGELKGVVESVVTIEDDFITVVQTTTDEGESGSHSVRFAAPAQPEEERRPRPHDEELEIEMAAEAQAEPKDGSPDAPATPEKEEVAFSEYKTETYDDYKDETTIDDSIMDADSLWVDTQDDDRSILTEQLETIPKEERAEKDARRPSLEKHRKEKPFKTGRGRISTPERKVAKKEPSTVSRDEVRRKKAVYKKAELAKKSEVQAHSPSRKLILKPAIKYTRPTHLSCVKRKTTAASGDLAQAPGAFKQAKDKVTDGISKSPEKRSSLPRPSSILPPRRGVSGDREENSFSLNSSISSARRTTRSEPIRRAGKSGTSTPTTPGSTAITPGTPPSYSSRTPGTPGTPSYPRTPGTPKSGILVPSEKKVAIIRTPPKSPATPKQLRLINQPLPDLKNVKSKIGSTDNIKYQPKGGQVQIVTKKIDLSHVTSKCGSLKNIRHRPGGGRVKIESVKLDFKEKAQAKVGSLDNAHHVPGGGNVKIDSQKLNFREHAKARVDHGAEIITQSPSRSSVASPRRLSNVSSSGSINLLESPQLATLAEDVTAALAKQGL
# UniProt P26350: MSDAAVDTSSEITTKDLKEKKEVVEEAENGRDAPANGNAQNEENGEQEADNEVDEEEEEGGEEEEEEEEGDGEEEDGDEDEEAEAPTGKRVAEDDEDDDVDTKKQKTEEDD
# UniProt P28033: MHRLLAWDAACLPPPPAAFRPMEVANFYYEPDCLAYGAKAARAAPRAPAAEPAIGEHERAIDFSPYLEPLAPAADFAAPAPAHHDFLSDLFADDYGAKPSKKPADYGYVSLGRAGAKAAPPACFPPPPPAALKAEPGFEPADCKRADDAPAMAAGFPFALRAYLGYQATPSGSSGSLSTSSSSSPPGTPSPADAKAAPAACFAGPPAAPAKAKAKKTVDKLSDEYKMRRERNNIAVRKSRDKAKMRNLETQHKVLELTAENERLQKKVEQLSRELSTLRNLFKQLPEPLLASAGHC
# UniProt P17225: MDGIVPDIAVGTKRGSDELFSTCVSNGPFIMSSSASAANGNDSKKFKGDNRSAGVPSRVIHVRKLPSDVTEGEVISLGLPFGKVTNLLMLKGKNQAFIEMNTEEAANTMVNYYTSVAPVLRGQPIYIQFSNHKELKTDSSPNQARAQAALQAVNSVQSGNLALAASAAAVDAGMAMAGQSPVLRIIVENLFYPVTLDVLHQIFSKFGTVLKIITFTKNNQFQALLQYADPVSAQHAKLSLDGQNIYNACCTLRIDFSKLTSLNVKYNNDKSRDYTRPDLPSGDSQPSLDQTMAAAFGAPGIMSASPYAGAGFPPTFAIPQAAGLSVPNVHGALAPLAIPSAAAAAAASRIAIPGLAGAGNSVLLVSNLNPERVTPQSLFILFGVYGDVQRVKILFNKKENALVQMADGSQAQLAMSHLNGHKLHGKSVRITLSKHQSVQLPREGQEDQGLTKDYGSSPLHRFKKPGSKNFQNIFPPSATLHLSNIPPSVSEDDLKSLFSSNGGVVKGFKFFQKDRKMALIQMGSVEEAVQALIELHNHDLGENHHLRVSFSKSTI
# Some of the results follow. Most entries show no effect beyond the scatter of the controls.
# Compound: CN[C@@H]1C[C@H]2O[C@@](C)([C@@H]1OC)n1c3ccccc3c3c4c(c5c6ccccc6n2c5c31)C(=O)NC4 [staurosporine]
# Test: log2 fold change of pooled soluble protein (PISA), ligand vs vehicle (log2 ratio); higher = more thermally stabilized
# Details: ligand concentration: 20 uM; assay format: PISA pool 52.9/55.5/58.6 C
row,Target,log2 fold change of pooled soluble protein
1,UniProt P23475,0.0886
2,UniProt P08207,-0.183
3,UniProt P15327,0.115
4,UniProt P11531,0.0463
5,UniProt P17439,0.147
6,UniProt P0DJF2,-0.0753
7,UniProt P24549,0.1
8,UniProt P21550,-0.179
9,UniProt P05977,-0.614
10,UniProt P19221,0.12
11,UniProt P01887,-0.114
12,UniProt P20357,0.0888
13,UniProt P25911,-0.0305
14,UniProt P04370,0.122
15,UniProt P26350,0.0882
16,UniProt P06802,0.07
17,UniProt P20852,-0.138
18,UniProt P07091,-0.174
19,UniProt P14576,-0.191

row,Target,log2 fold change of pooled soluble protein
1,UniProt P02802,0.486
2,UniProt P07309,-0.273
3,UniProt P11725,-0.00397
4,UniProt P13707,-0.0853
5,UniProt P04186,-0.0043
6,UniProt P15208,0.0944
7,UniProt P15379,0.361
8,UniProt P28033,0.292
9,UniProt P22892,0.0719
10,UniProt P26928,0.29
11,UniProt P20108,-0.0253
12,UniProt P11983,-0.0079
13,UniProt P08030,0.08
14,UniProt P03987,-0.104
15,UniProt P28474,-0.0371
16,UniProt P17225,-0.0908
17,UniProt P25446,0.046
18,UniProt P24527,-0.0254

# Given with bars between the fields: part of the list above
row | Target | log2 fold change of pooled soluble protein
12 | UniProt P11983 | -0.0079
18 | UniProt P24527 | -0.0254
